Most values lie at the floor of the assay. Slopes are relative: functional sequences can read slightly below zero.

The subject of this data set is Saccharomyces cerevisiae PS128 hsf1 delta, HSF1(1-493) fusion. Briefly: growth estimate (transactivation domain function in HSF1 fusion, heat-shock survival) (a.u. (slope of normalised read count over time)); higher = stronger growth at 37°C, i.e. more transactivation activity. The note with it: library: random library. The protocol:
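Random 60-nt DNA library encoding peptides of up to 20 aa, fused to the C-terminus of yeast HSF1 residues 1-493 (C-terminal TAD deleted) and expressed from the native HSF1 promoter on a CEN plasmid in hsf1-deleted S. cerevisiae PS128. Cells were selected at 37°C on -trp 5-FOA plates for 0, 2, 4, 6 and 8 days and amplicons were sequenced. Growth estimate is the slope of a robust linear fit of total-sum-normalised read counts (normalised to the first time point) over time, using at least 2 replicates. Sequences are classed functional (TAD activity) above a threshold of -0.13, set from stop-codon control sequences.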
As to TRDDLTCR, the growth estimate is < -0.25.
The same measure for QRRGGCHGGIEVVFSSDMT: < -0.25.
The same measure for TVARIKRSGYISVSLLASSS: < -0.25.
Consider VILHEVRR, for which the growth estimate was < -0.25.
As to MAIDGLYVFSTTALFEGRAL, the growth estimate was < -0.25.
The same measure for TGTGFY: < -0.25; for ELKRAHYGNQSGDGTQTDSG: < -0.25; for RKFVDSVVPMVQGGIYG: < -0.25.
With VIKKVLRSMGTCSNSL the figure was < -0.25.
Turning to FMEPE, the growth estimate was < -0.25.
DLSVVDDKLGRFKF: the growth estimate was < -0.25.
As for QQILAMGAFPAVFPQRRFVH, the growth estimate is < -0.25.
With VGIYEWRECRTRYTWPCYSA the figure was < -0.25.
The same measure for STAD: < -0.25; for KILTEGCVKKAVCHPVRRSL: < -0.25.
With VSHSEGP the figure was < -0.25; with RCNHDPVILAENVDAH, < -0.25.
On to ITEC, for which the growth estimate was < -0.25.
The same measure for RCTAA: < -0.25; for VYAGI: 0.0687; for GTSGSFDLCRVRLCYKKGPL: < -0.25.
Turning to NLCKGCALYGRPLKVSAPPP, the growth estimate is < -0.25.
As to FSRVR, the growth estimate was < -0.25.
The same measure for ACL: < -0.25; for AGGKGRWSVVHQPYTLLEGG: < -0.25; for YLNVHLRARRYRCGHALLVE: < -0.25.
Turning to QSLRKRACHTEYRIIE, the growth estimate was < -0.25.
As to LVGQRLVLYPVGHVRYLDTG, the growth estimate was < -0.25.
The same measure for QQATSVSNR: < -0.25.
With GER the figure was < -0.25; with KRGGRQLDSARSLSEFRGPG, < -0.25; with TRSAVGLGVTGLAGGATLRR, < -0.25.
As for RVD, the growth estimate is < -0.25.
The same measure for TGLRQPAFSTCLFGAYPTFL: -0.166.
Consider NRISD, for which the growth estimate is -0.246.
The same measure for RQRTIGVGDLNISDSPTGDA: < -0.25; for GLYRH: < -0.25; for WFYGVYVVPSLD: < -0.25.
Regarding MTDISSDGSRFCTRMPRKAT, the growth estimate was < -0.25.
With HSVKAKDG, the growth estimate was < -0.25.
The same measure for SEEGLVSTEAADTFRWILKC: < -0.25; for TLSGRAQSSRGNAVHRGCCY: < -0.25; for VTFGRSALPDVYRRWSMMHQ: < -0.25.
The same measure for PDMAVGFFSRIGVPVRYVTS: < -0.25; for SYVGVDDETGG: < -0.25.
In the case of HSVEGTWKKTVGRGNYSPDP, the growth estimate was < -0.25.
With VGRPGAGSCTSIERG, the growth estimate was < -0.25.
As to TYGFFVIEDQNGT, the growth estimate is < -0.25.
With KNGIVHDRSMRGPP the figure was < -0.25.
With SECGIFANATK the figure was < -0.25; with GPLRVTQVIPRSFVRGIHQP, < -0.25; with IVKSLDATLKY, < -0.25.
The same measure for ISNKICCTYAPQSSAYRSEW: < -0.25.
On to GRRGGNATHR, for which the growth estimate is < -0.25.
With QVHLEDLRSYRVLCRSMYPV the figure was < -0.25.
For the substance IEQAQAAASWPGPGELSDFW, the growth estimate is -0.0395.
The same measure for CDQ: < -0.25; for QAAGSDRMSSYISLFIGFGG: < -0.25; for SVLLDQVGIRPWRAGPGNPS: < -0.25.
Consider CLRHGGSSGIVRRCGLSIS, for which the growth estimate was < -0.25.
Consider RLALWRITLC, for which the growth estimate was < -0.25.
With SGCKTRGGPGTLLRLEGFRQ the figure was < -0.25; with NQGVHSARHVLGMSHYISA, < -0.25; with VHTRPSVNVSPCLYVADGFA, < -0.25.
For the substance RGTQIGHAGRDWLSPPWSAG, the growth estimate is < -0.25.
With KVQASTRLGASQHFKFFLSG the figure was < -0.25; with GKVAGLRPRLAN, < -0.25; with SICQHQLAFH, < -0.25.
The same measure for HFVYLFATSVCMKPSVRGSV: < -0.25; for TWHWWRKELVKQRVRNYRTG: < -0.25.
MRVCFLSKWRG: the growth estimate is < -0.25.
Turning to VLGPVCVQVRLTLSGAFRAP, the growth estimate was < -0.25.
With KTPDTR the figure was < -0.25; with ADAGVRSYYSRRVGRCRRLP, < -0.25; with RNCTHGC, < -0.25.
In the case of RYLGSLRVAY, the growth estimate is < -0.25.
For ACIPAFNVLIGWTVRRSHMG, the growth estimate was < -0.25.
Turning to CKIG, the growth estimate is < -0.25.
SARVVCRKSCF: the growth estimate is < -0.25.
With LNQDSELRGPVLAKAC, the growth estimate was < -0.25.
With RERSSLRVGGLVEDTPS the figure was < -0.25; with LHSTSCRQRGQG, < -0.25; with IWTCSGADIEVKGFSWIAAS, < -0.25.
As to WSIIR, the growth estimate is < -0.25.
On to ATPLGCGSRGGRERALSNHA, for which the growth estimate is < -0.25.
The same measure for SIGFRCGQNKSGIDNGNTLL: < -0.25.
The same measure for WPDATRYFLCIANSDSIRLK: < -0.25.
With CEIKCMTLLLHELRALITCG the figure was < -0.25; with ATLRYASPFFRVPCIHLVNL, -0.243.
As for RLRQ, the growth estimate is < -0.25.
The same measure for ANGSRYSVTVFSELRYIKPS: < -0.25; for RVMDGCVSVCAG: < -0.25.
The same measure for DARGPTSNLTGEGDKTGLFG: < -0.25; for GRIIPYIIKTTESKRRMRVN: < -0.25.
The same measure for KNPGFLGTDSRLCRGGNVEG: < -0.25; for VDAVLACP: < -0.25; for ISPNWLPTRRFFG: < -0.25.
VSIQSILRFIRCYSGGSNAI: the growth estimate is < -0.25.
As to IRVLF, the growth estimate is < -0.25.
The same measure for IPNSGPSIRWSESKNSFSKR: < -0.25; for TPYQAGFGYLVLNVLHMYAA: < -0.25.
The same measure for PQNGAA: < -0.25; for NLRREDAMMRRHALSTCKVR: < -0.25; for TNIRDA: < -0.25.
With YQDQPSNCWVDLQPGGQEIT the figure was < -0.25; with QML, < -0.25.
On to GGRDDRPPSYRGQVARSLGI, for which the growth estimate is < -0.25.
For QHRAHSAQV, the growth estimate is < -0.25.
With TRII the figure was < -0.25; with SDVECQAAPVRTPRGVLFRW, < -0.25; with RRSQTMTCQGSVTSWKCYGE, < -0.25.
Turning to RVILQYM, the growth estimate is < -0.25.
As for VVWGVARLGSLGIFQPDPP, the growth estimate is < -0.25.
Consider ASILLRRPGRVPSGSTPS, for which the growth estimate was < -0.25.
For TPHPSPGSGCSKSLILYIAM, the growth estimate was < -0.25.

These data come from the supplement of paper PMC5949888.
